Laboratory results reported in article PMC2788703.
No constants are given. Whether binding was seen depends on the method and setting. Binding seen in cells or lysates may run through a third protein. Binding calls can cover weak binding; strength is not graded here.

Protein sequences, listed by entry. Tags and fused reporters are not part of them. Lines headed by an entry give the natural chain unless they say otherwise; changes in a name come on top.
UniProt Q9Y4L5: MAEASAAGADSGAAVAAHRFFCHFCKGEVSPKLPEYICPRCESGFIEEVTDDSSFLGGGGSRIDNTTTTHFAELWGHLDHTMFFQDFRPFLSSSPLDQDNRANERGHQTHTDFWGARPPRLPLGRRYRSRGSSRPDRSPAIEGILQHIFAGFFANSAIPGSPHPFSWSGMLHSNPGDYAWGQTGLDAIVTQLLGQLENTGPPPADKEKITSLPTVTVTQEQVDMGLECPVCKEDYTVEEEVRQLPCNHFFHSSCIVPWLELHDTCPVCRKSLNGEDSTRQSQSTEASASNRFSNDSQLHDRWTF
UniProt Q10589: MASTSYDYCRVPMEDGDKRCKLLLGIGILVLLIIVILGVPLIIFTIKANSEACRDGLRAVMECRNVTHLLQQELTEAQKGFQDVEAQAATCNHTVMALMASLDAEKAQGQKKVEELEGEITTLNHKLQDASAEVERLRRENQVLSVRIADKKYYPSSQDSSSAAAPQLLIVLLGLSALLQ

Tests used:
[1] = biological target: N-terminal HA-tagged BCA2 (human) (UniProt Q9Y4L5); experiment: co-IP; 293T cells co-expressing Myc-tetherin (FL or Δ1–20) and HA-BCA2 (FL or deletion mutants); lysates incubated with anti-HA affinity gel; immunoblot with HA or Myc antibodies
[2] = biological target: GST-BCA2 (recombinant GST-tagged BCA2) (human) (UniProt Q9Y4L5); experiment: pull-down; glutathione beads coupled with purified GST-BCA2 incubated with lysates of 293T cells expressing Myc-tetherin (FL or Δ1–20); immunoblot with Myc antibody; only the target purified

binding [1]: binds
binding [2]: binds
Substance: Myc-tetherinΔ1–20 (deletion mutant devoid of the cytoplasmic tail domain) (from UniProt Q10589) (domain or fragment)
